Data as given in the odorant receptor screen of Mainland et al. (2015).
Where “and” joins values, the source holds several entries; their conditions need not be identical. Equal entries are not always repeated. The list shows a part of the results. Single wells; the ratio to wells without odorant was worked out here, and repeats agree poorly.

Chains of the proteins cited; added tags and fusions are not shown. Chains listed by the source or under a name are the forms on record and can include a tag or linker.
OR4F14 A297T, as listed by the source, stated change not applied: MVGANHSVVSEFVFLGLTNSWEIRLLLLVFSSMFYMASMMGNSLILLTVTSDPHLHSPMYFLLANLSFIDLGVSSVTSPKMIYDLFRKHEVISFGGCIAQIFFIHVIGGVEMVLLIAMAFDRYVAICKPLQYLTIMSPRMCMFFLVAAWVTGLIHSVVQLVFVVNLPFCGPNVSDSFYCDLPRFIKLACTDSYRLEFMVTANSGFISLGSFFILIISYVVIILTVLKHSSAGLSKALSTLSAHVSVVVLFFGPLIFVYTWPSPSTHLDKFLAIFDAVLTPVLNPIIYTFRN

Experiments:
Assay in all cases: odorant receptor activation (CRE luciferase / Renilla) (fold of no-odor wells); higher = more activation
Conditions in all cases: 100 µM
OR4D1 R54Q clone 1467 = tested on: OR4D1 R54Q clone 1467
OR4D1 clone 1316 = tested on: OR4D1 clone 1316
OR4D10 clone 1174 = tested on: OR4D10 clone 1174
OR4D11 clone 1243 = tested on: OR4D11 clone 1243
[1] = tested on: OR4D2 C97S/L187F clone 1285
OR4D6 D96G clone 1225 = tested on: OR4D6 D96G clone 1225
OR4D9 clone 1217 = tested on: OR4D9 clone 1217
[2] = tested on: OR4E2 V118M/Q234R clone 1274
OR4F14 A297T clone 1059 = tested on: OR4F14 A297T clone 1059
OR4D5 clone 1122 = tested on: OR4D5 clone 1122

| SMILES | odorant receptor activation (OR4D1 R54Q clone 1467) | odorant receptor activation (OR4D1 clone 1316) | odorant receptor activation (OR4D10 clone 1174) | odorant receptor activation (OR4D11 clone 1243) | odorant receptor activation [1] | odorant receptor activation (OR4D6 D96G clone 1225) | odorant receptor activation (OR4D9 clone 1217) | odorant receptor activation [2] | odorant receptor activation (OR4F14 A297T clone 1059) | odorant receptor activation (OR4D5 clone 1122) |
| --- | --- | --- | --- | --- | --- | --- | --- | --- | --- | --- |
| CC12C=CCC1C1CCC3=CC(=O)CCC3(C)C1CC2 (stereo unspecified) [androstadienone] | 1.15 and 1.2 | 1.09 and 0.783 | 0.907 | 1.07 and 0.965 | 0.986 and 1.26 | 0.993 | 0.804 | 1.29 and 1.22 | 2.85 | – |
| CCCCCC(C)=O [2-heptanone] | 0.736 and 0.357 | 0.597 | 1.08 | 0.598 | 4.32 | 1.22 | 1.4 | 0.836 | 1 | – |
| CC(=O)OC(C)(C)C1CC=C(C)CC1 (stereo unspecified) [terpinyl acetate] | 0.88 | 0.829 | 1.24 | 0.894 | 0.709 | 1.63 | 1.79 | 0.912 | 1.42 | 1 |
| COc1cc(C)ccc1O [2-methoxy-4-methylphenol] | 0.683 | 1 | 1.21 | 0.834 | 0.998 | 0.852 | 1.15 | 0.925 | 1.62 | 0.839 |
| CC(C)(O)CCCC1=CCC(C=O)CC1 (stereo unspecified) [lyral] | – | – | – | – | – | – | – | – | – | 1.11 |
| C=C(C)C1CC=C(C)C(=O)C1 (stereo unspecified) [r-carvone] | 1.1 | 0.842 | 0.684 | 0.707 | 0.702 | 1.18 | 1.39 | 1.02 | 0.956 | 0.981 |
| CC(C)(C)c1ccc(CCC=O)cc1 [bourgeonal] | 1.06 | 0.574 | 0.828 | 0.695 | 0.884 | 0.675 | 0.634 | 1.02 | 0.841 | – |
| O=C1CCCCCCCCCCCC(=O)OCCO1 [ethylene brassylate] | 1.78 | 1.52 | 1.75 | 1.69 | 1.53 | 1.46 | 1.55 | 1.52 | 1.52 | 1.08 |
| O=C1CCCCC1 [Cyclohexanone] | 0.317 and 0.597 | 0.172 | 0.759 | 0.366 | 1.01 | 0.608 | 0.911 | 0.38 | 0.645 | – |
| CC(C)CC(=O)O [isovaleric acid] | 1.05 | 0.674 | 0.882 | 0.701 | 0.724 | 1.21 | 1.18 | 0.928 | 0.876 | 0.982 |
| CC1COCc2cc3c(cc21)C(C)(C)C(C)C3(C)C (stereo unspecified) [galaxolide] | – | 1.38 and 2.78 | 0.743 | 1.16 and 1.07 | 0.791 and 1.69 | 0.864 | 3.66 | 3.37 and 5.2 | 3.07 | 0.839 and 1.82 |
